{"source": "patent US9127027B2", "about": "“Epoxyeicosatrienoic acid analogs and methods of making and using the same” (The Medical College of Wisconsin, Inc., priority 2011, dated 2015)", "system": "Hela, NCCIT and U87", "test": "Cell viability (alamar blue) in cancer cell lines", "format": "cell-based, human", "settings": "range over Hela, 72 h, read-out: IC50 cell growth inhibition", "experimental": "In this study, HEK293, U87MG, Hela cell-lines were obtained from the ATCC (Manassas, Va., USA) (HEK293, U87MG, Hela), and NCCIT was collected from Department of Pediatrics, UT Southwestern Medical Center at Dallas, Tex., USA. All cell lines were maintained in DMEM or RPIM with 10% fetal bovine serum and penicillin/streptomycin purchased from Life Technologies (Grand Island, N.Y., USA). Cisplatin was purchased from either Sigma (St. Louis, Mo., USA) or CalBiochem/EMD Biosciences (Billerica, Mass., USA). Cells were seeded in 96-well plates at 500 to 4,000 cells per well depends on cell type. […] Cell viability was measured by alamar blue assay using resazurin (Sigma Aldrich) according to the manufacturer's guidelines. Viability results were measured by fluorescence/absorbance in a 96-well plate reader from BMG Labtech (Cary, N.C., USA) and the IC50 was calculated by GraphPad Prism® software (GraphPad Software Inc, La Jolla, Calif., USA).", "data": [{"molecule": "N.N.[Cl][Pt][Cl]", "note": "[cisplatin]", "values": [{"measurement": "IC50", "value": "1.1 to 9.24", "unit": "µM"}]}]}
